For 1 molecule, MIC results are on record in paper PMC6010545, “Identification of a Novel Polyamine Scaffold With Potent Efflux Pump Inhibition Activity Toward Multi-Drug Resistant Bacterial Pathogens” (Frontiers in Microbiology, 2018).

The subject of this test is S. aureus. Kind of test: microbe, parasite or virus in culture. It counts as cell-based. As to conditions: Staphylococcus aureus. As for the experimental part:
The bacterial strains used in this study are multi-drug resistant clinical isolates that have previously been described (Supplementary Table S1; [Fleeman et al., 2015]). Organisms were grown in tryptic soy broth (TSB) for overnight cultures and cation adjusted Mueller Hinton broth (CA-MH II) was used for experimental procedures. All incubations were performed at 37°C. The minimum inhibitory concentrations (MICS) for all antibiotics tested against these organisms are shown in Supplementary Table S1.

Structures are written as SMILES. ≈ marks a conversion by molar mass, not a printed value. Read-outs that look alike come from different tables or passages of the source.

For `CN(C)[C@@H]1C(O)=C(C(N)=O)C(=O)[C@@]2(O)C(O)=C3C(=O)c4c(O)cccc4[C@@](C)(O)[C@H]3C[C@@H]12` [tetracycline], the MIC (USA100, read-out: minimal inhibitory concentration) was determined as 1.76 µM (≈ 0.782 µg/mL) and the MIC (USA300, read-out: minimal inhibitory concentration) was found to be 2.25 µM (≈ 1 µg/mL).
